# In PubChem BioAssay AID1347075 (National Center for Advancing Translational Sciences (NCATS), 2019):
# Where “and” joins values, the source holds several entries; their conditions need not be identical. Equal entries are not always repeated. About 5,500 (1.4%) of roughly 400,000 compounds were called active. This list was built around the results that the source calls inconclusive (neither active nor inactive); the mix of calls is not that of the screen. Calls come from the whole dose curve; as a rule, active = well fitted cell-killing curve with a large enough effect; inconclusive = small, poorly fitted or top-dose-only effect, or effect the other way; inactive = flat fitted curve, though single readings scatter. Where the call is inconclusive, the potency comes from a doubtful curve fit.
# Experiment: qHTS assay for MDR1-selective chemotherapeutics: Primary screen using the parental adenocarcinoma cell KB-3-1; note: nearly all actives have a fitted effect of over 60% in size
# Conditions: KB-3-1 viability, CellTiter-Glo ATP luminescence, 72 h; activity change, negative = cytotoxic: at 46.1 µM (top of the series)
# Method in brief: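 Using CellTiter-Glo luminescence, growth of non-resistant KB-3-1 adenocarcinoma cells is assessed 72 h after pin-tool compound addition at 37 °C. Normalized responses across the concentration series yield fitted curves.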
# % is set by controls: 0 for no effect and ±100 for the full control effect; potency is the fitted concentration of half-maximal effect.
SMILES,Potency,"activity change, negative = cytotoxic"
CCN(CC)CCNC(=O)c1ccc2c(=O)n3nc(Nc4cccc(Cl)c4C)sc3nc2c1,"inconclusive: 29.1 µM [cytotoxic, single point]",
CCCn1c(C(C)Nc2nc(-c3ccc(C)cc3)cs2)nc2ccccc21 (stereo not drawn),"inconclusive: 29.1 µM [cytotoxic, single point]",
CCOc1ccc(C(c2c(C)[nH]n(-c3ccccc3)c2=O)c2c(C)[nH]n(-c3ccccc3)c2=O)cc1OC,"inconclusive: 23.1 µM [rising, single point]",
COc1ccc(S(=O)(=O)Nc2ccccc2C(=O)N2CCCCC2)cc1C,,inconclusive: -54.3%
O=C(Nc1ccc2oc(-c3ccccc3)nc2c1)c1ccncc1,"inconclusive: 14.6 µM [cytotoxic, single point]",
O=C(OCCCN=C1NS(=O)(=O)c2ccccc21)C1CC(=O)N(c2ccc(Cl)cc2)C1 (stereo not drawn),,inactive: 0%
O=C(N/N=C/C=C/c1ccccc1)c1cc2c(ccc3ccccc32)o1,"inconclusive: 29.1 µM [cytotoxic, single point]",
CCn1c2ccccc2c2cc(NC(=O)CSc3nnc(-c4cccc(C)c4)o3)ccc21,active: 23.1 µM,
COC(=O)c1cc(NS(=O)(=O)c2ccc(NCc3cccnc3)c([N+](=O)[O-])c2)cc(C(=O)OC)c1,"inconclusive: 29.1 µM [rising, single point]",
Cc1csc(NC(=O)C2CCN(S(=O)(=O)c3ccc4c(c3)oc(=O)n4C)CC2)n1,"inconclusive: 29.1 µM [cytotoxic, single point]",
CC(C)Cc1nnc(NC(=O)CCC(=O)N2CCN(Cc3ccccc3)CC2)s1,,inactive: -3.6%
COC(=O)/C=C1\SC(=Nc2ccc(OC)cc2)NC1=O,,inactive: -5.96%
COc1ccc(CCNC(=O)C2CC(c3cc(C(F)(F)F)cc(C(F)(F)F)c3)=NO2)cc1 (stereo not drawn),"inconclusive: 13 µM [rising, partial curve, poor fit]",
COc1cc(NC(=S)Nc2ccc3c(c2)OCCO3)cc(OC)c1OC,,inactive: -1.79%
CCCc1cc(=O)oc2cc(C)c3c(C(C)(C)C)coc3c12,,inactive: 11.5%
COc1ccc(-n2nnnc2SCC(=O)Nc2ccc3c(c2)OCCO3)c(OC)c1,,inactive: 0.512%
Fc1ccccc1Cn1c2[n+](c3ccc(C(F)(F)F)cc31)CCCCC2,"inconclusive: 29.1 µM [cytotoxic, single point]",
Cc1ccc(S(=O)(=O)N2[C@H](CC(=O)c3ccc(F)cc3)OC[C@@H]2C(C)C)cc1,"inconclusive: 20.6 µM [cytotoxic, single point]",
O=C(Nc1ccc(C(=O)NCc2ccccc2Cl)cc1)C1=CSCCO1,"inconclusive: 29.1 µM [rising, partial curve, poor fit]",
CCOC(=O)c1c(C)c(-c2ccccc2)n(CC(=O)NCCC(C)C)c1C,,inactive: 22.9%
Cc1nc2c(OCc3cccc(Cl)c3)cccn2c1N(C)CC1CC1,"inconclusive: 29.1 µM [cytotoxic, single point]",
O=c1c(-c2nnc(SCc3ccc(Cl)c(Cl)c3)o2)cccn1Cc1ccccc1,"inconclusive: 18.4 µM [cytotoxic, single point]",
Cc1ccc2cc3c(NC(=O)c4cccnc4)nn(C)c3nc2c1,"inconclusive: 2.31 µM [rising, partial curve, poor fit]",

SMILES,Potency,"activity change, negative = cytotoxic"
OCCC1CN(Cc2cccn2-c2cccnc2)CCN1C1CCCCC1 (stereo not drawn),,inactive: 2.72%
COc1ccc(CN2CCC3CC2c2cc(Cl)ccc23)cc1 (stereo not drawn),"inconclusive: 23.1 µM [cytotoxic, single point]",
COc1cccc(CN2C(=O)C3(SCC(=O)N3c3ccc(C(C)C)cc3)c3ccccc32)c1 (stereo not drawn),"inconclusive: 25.9 µM [cytotoxic, single point]",
O=C(C=Cc1ccccn1)c1ccccc1,"inconclusive: 29.1 µM [cytotoxic, single point]",
COc1ccccc1-n1c(SCc2cc(=O)oc3cc(O)ccc23)nc2ccccc2c1=O,"inconclusive: 29.1 µM [cytotoxic, single point]",
COc1ccc(N(CC(=O)Nc2cc(Cl)ccc2C)S(=O)(=O)c2c(C)noc2C)cc1,active: 6.51 µM and active: 5.8 µM,
CCn1c(=O)c(=O)[nH]c2cc(C(=O)NC3CCCc4ccccc43)ccc21 (stereo not drawn),active: 10.3 µM,
CCOC(=O)c1ccc(N2C(=O)Cc3cc(OCC)c(OCC)cc3C2c2ccccc2)cc1 (stereo not drawn),"inconclusive: 29.1 µM [cytotoxic, single point]",
O=C(OCC(=O)N1CCN(C(=O)c2ccco2)CC1)c1cc(-c2ccc(F)cc2)nc2ccccc12,,inactive: 3.07%
O=C(C[n+]1cc2ccccc2c2ccccc21)c1ccccc1,"inconclusive: 23.1 µM [cytotoxic, single point]",
OC[C@@H]1CCCN1Cc1cn(-c2ccccc2)nc1-c1ccc2c(c1)OCO2,,inactive: -7.2%
COc1ccc(NC(=O)NC23CC4(C)CC(C)(CC(C)(C4)C2)C3)cc1OC,"inconclusive: 20.6 µM [cytotoxic, partial curve, poor fit]",
Nc1nonc1C(=O)NCCNCc1c(OCc2ccccc2F)ccc2ccccc12,"inconclusive: 25.1 µM [cytotoxic, single point]",
Cc1ccc(C)c(OCCCN2CCNCC2)c1,,inactive: 16.5%
CC1(C)CCC(c2ccc(Cl)cc2)=C(CN2CCN(c3ccc(C(=O)NS(=O)(=O)c4ccc(N[C@H](CCN5CCOCC5)CSc5ccccc5)c(S(=O)(=O)C(F)(F)F)c4)cc3)CC2)C1,,inactive: -63.5%
CN(C)c1ccc(/C=C/c2cc[n+](C)cc2)cc1,active: 23.1 µM,
Cc1ncsc1C(=O)N1N=C2/C(=C/c3ccccc3)CCCC2C1c1ccccc1 (stereo not drawn),"inconclusive: 29.1 µM [cytotoxic, single point]",
Cc1cc(C)cc(NS(=O)(=O)c2ccc(NC(=S)NC(=O)c3cccs3)cc2)c1,active: 23.1 µM,
CCOc1ccc(NCc2nnc(SCc3ccc(Cl)cc3)n2-c2ccccc2)cc1,"inconclusive: 29.1 µM [cytotoxic, single point]",
Cc1ccc(Cn2c(CCNc3nc(-c4ccc(Cl)c([N+](=O)[O-])c4)cs3)nc3cc(Cl)c(Cl)cc32)cc1,"inconclusive: 16.4 µM [cytotoxic, partial curve, poor fit]",
COc1ccc(-c2ccc(CCC(=O)O)n2CC(=O)Nc2cccc(Cl)c2C)cc1,,inactive: -1.19%
CN(CC(=O)O)S(=O)(=O)/C=C/c1ccccc1,"inconclusive: 23.1 µM [rising, single point]",
Cc1cc(Cl)ccc1OC(C)C(=O)NNC(=O)C1CCCCC1C(=O)O (stereo not drawn),,inconclusive: 39%

# Entries from the list above that contain a CF3 group:
SMILES,Potency,"activity change, negative = cytotoxic"
COc1ccc(CCNC(=O)C2CC(c3cc(C(F)(F)F)cc(C(F)(F)F)c3)=NO2)cc1 (stereo not drawn),"inconclusive: 13 µM [rising, partial curve, poor fit]",
Fc1ccccc1Cn1c2[n+](c3ccc(C(F)(F)F)cc31)CCCCC2,"inconclusive: 29.1 µM [cytotoxic, single point]",
CC1(C)CCC(c2ccc(Cl)cc2)=C(CN2CCN(c3ccc(C(=O)NS(=O)(=O)c4ccc(N[C@H](CCN5CCOCC5)CSc5ccccc5)c(S(=O)(=O)C(F)(F)F)c4)cc3)CC2)C1,,inactive: -63.5%

# (continued)

SMILES,Potency,"activity change, negative = cytotoxic"
C/C(=N\NC(=O)CNC(=O)C(c1ccccc1)c1ccccc1)c1ccc(C(C)(C)C)cc1,"inconclusive: 20.6 µM [cytotoxic, single point]",
CC1(C)N=C(N)N=C(N)N1c1cccc(CN)c1,,inactive: -1.7%
O=C(CN1C(=O)CC(c2ccco2)Sc2ccccc21)Nc1ccc(Br)cc1 (stereo not drawn),"inconclusive: 20.6 µM [cytotoxic, single point]",
CCN1CCN(C(c2ccccn2)c2c(NC(=O)c3ccccc3)sc(C)c2C)CC1 (stereo not drawn),"inconclusive: 29.1 µM [cytotoxic, single point]",
O=C(/C=C/c1ccc(Br)cc1)c1ccc(NC2=NCCCS2)cc1,active: 20.6 µM,
Cc1cccc(C)c1OCc1nc2ccccc2[nH]1,"inconclusive: 29.1 µM [cytotoxic, single point]",
Cc1ccc2cc(CCNC(=O)C(C)C)c(=O)[nH]c2c1,"inconclusive: 29.1 µM [rising, partial curve, poor fit]",
CC1(C)CC(=O)C=C(c2ccc(-c3ccc(S(C)(=O)=O)cc3)cc2)C1=O,"inconclusive: 29.1 µM [cytotoxic, single point]",
CC(C)C[C@@H]1O[C@H](CCc2ccccc2)CC2=C1C(=O)OC(C)(C)O2,"inconclusive: 23.1 µM [cytotoxic, single point]",
Cc1ccc(S(=O)(=O)NCCC(=O)NNC(=O)c2ccccc2O)cc1C,"inconclusive: 23.1 µM [cytotoxic, single point]",
Cc1cc(OCc2cc(C(=O)N3CCC(Oc4cccnc4)CC3)no2)cc(C)c1Cl,,inactive: -15%
Cc1ccccc1C(=O)Nc1nnc([C@@H]2C[C@H](O)[C@@H](CO)O2)s1,"inconclusive: 32.6 µM [cytotoxic, single point]",
CN1CCN(C(=O)CCCN2C(=O)/C(=C/c3cccc(Br)c3)SC2=S)CC1,"inconclusive: 29.1 µM [cytotoxic, single point]",
CCOc1ccccc1N1CC(O)=C(c2nc3ccccc3s2)C1=N,active: 9.2 µM,
Cc1nn(-c2ccccc2)c2c1N(CCCC(=O)NCc1ccccc1)C(=O)CS2,"inconclusive: 29.1 µM [cytotoxic, single point]",
NS(=O)(=O)c1ccc(CCNC(=O)C(=O)NCC2OCCN2C(=O)c2ccc3c(c2)OCO3)cc1 (stereo not drawn),,inactive: 13.7%
Cc1ccc(NC(=O)CN2CCCN(S(=O)(=O)c3ccc(Br)s3)CC2)cc1,,inactive: -7.23%
COc1ccc(-c2coc3c(C(=O)Nc4cccnc4)cccc23)c(C)c1,"inconclusive: 29.1 µM [cytotoxic, single point]",
COc1cc(C(=O)N2c3ccccc3CC2C)cc(OC)c1OC (stereo not drawn),"inconclusive: 29.1 µM [cytotoxic, single point]",
COc1cc(NC(=O)Cn2cnc3c2c(=O)n(C)c(=O)n3C)c(OC)cc1Cl,,inactive: -5.8%
Cc1ccc2oc(-c3cccc(NC(=O)c4ccccn4)c3)nc2c1,,inactive: 14.9%
O=C(NCC1CCCO1)c1cc2c([nH]c3ccccc32)c(-c2cccc(Cl)c2)n1 (stereo not drawn),"inconclusive: 25.9 µM [cytotoxic, single point]",
